Measured values taken from PMC11891140.
These are yes or no findings as the source states them, for the method shown. In cells and extracts the contact can be indirect. For part of these data: Sequences can lack the tags named with a protein. One block for each binder: values may come before it.

Key:
[1] = biological target: T1, endogenous RAB-10 (C. elegans (endogenous in the animals)) (UniProt Q94148); test: co-IP; EGL-8::mCherry and endogenous RAB-10 in C. elegans animals (Fig. S5A)
T1 sequence: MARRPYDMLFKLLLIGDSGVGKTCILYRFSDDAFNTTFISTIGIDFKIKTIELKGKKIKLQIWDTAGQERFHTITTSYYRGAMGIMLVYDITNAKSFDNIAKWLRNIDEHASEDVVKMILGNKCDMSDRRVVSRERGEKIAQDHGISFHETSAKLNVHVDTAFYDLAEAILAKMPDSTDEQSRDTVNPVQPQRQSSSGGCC

[2] = biological target: T2, RAB-10 used in GST pull-downs, loaded with GTPγS or GDP (C. elegans) (UniProt Q94148); test: pull-down; GST pull-down with inactive RAB-10(GDP) and EGL-8 (Fig. S5B)
T2 sequence: T1 sequence

[3] = biological target: T2, RAB-10 used in GST pull-downs, loaded with GTPγS or GDP (C. elegans); test: pull-down; GST pull-down with active RAB-10(GTPγS) and EGL-8 (Fig. S5B)

binding [1]: no binding
B1: EGL-8::mCherry (expressed in C. elegans animals) (enzyme, UniProt G5EBH0 1-1431)
chain: MAKEFQFNWKPTIIPELLHGSVFDRYDDESTCLELNAQVRIDENGFFLRWLIEGKDAVVLDMGQIWEARTGGLPKDGRIMFELEQRGASETIAERTIWITHGQDLVNVQSFFLVAESVELAKTCRAGINDILKSSRIRHVCPTTQLMKYHTWLTMNVNERRKIPIKLIIKTFSSGKPEKMVQKCLNDLGLGGDKYTPARVINRSMGKKFRNFYKCSRGRKRKEREELDVDILTFEKFQRLYNKICPRTEVQELFVKLSGQKEYLTKERLINFLNEEQRDPRLNEILFPFFDSQRIVALLKKHENDIKYQEDGKMSGDGFLRFLMSDENPPVFLDRIEMFMDMDQPLCHYYINSSHNTYLTGRQYGGKSSSEIYRQVLLSGCRCIELDCWDGTGENKGEPIITHGKAMCTDVFFKDVLVQIRDTAFARSDFPVVLSFENHCSKSNQLKMAKYCMDIFGDMLLSKPFEDAPLDPGVSLPSPNRLRKKILIKNKRLKTDIERHQLDQFLREGKLDEEDELNETPEVVGEDSVSPRSGGSGGTGAPEEVDDDTSDDDDDPSVQTSLNVMRTIPTVNTTSNNGSNRSARSSLDTPSPSGGSLMVPDRATSTATSIKNAVLARSPNFSSLRQKLSFKRRQSPLAGDQRAHPEVEQPVSSSSPATPSISGPPPCATSSGSTSSITITTTGCSTSSSGPSKHILGGEMPAKENDEAHPELKQNFIAKNLKGFGFSKKQPVLTKEEEERIFAEYHYTGATTNIHPLLSSLVNYTHPVKFSGFDVAEANNLHFHMSSFSESTGLGYLKQSAPEFVNYNKRQSSRIYPKGARVDSSNFLPQIFWNAGCQMVSLNFQTPDVYMQLNMGKFEYNGGSGYLLKPDFLRRPDRTFDPFSESPVDGVIAAHCSVRVISGQFLSDRKIGTYVEVEMYGLPTDTIRKEHKTKVIPGNGLNPVYNEDPFVFRKVVLPELAVLRFAVYDENGKQLGQRILPLDGLQAGYRHISLRSDTNQSFILSPVLFVQIVIKTYVPDELSGLVDALADPRAFLSEQKKRQEALAHMGVDDSDIPDVPNTRNMALRHVKQPPRQNGSSADLLANNGQTGSARGDQTSSMASSTIRSPNEQPQPVAVDKFKVDPIEVDDLRRDKAFAKLLKRFQKELDDLRKKHQKQRDSIQKQQPARRRNSSIAWIQTNVDKLITNNRRSTKKEKGSRRSLTASVSSGCGSASGTVTVSVCSPSGASCSGYSTGGPSTPVACNSDGTGSPATIGSPVPQDLVNNDRVRSLVNTQTGEWSAMVRRHDEEEFELKKVQLKEQFDLLRKLMSEAQKNQMLALKLRLEAEGKDLKQTQTKKSMEDAKVIQLDKGIKTKAERDRRVKELNEKNLKMFVEERKRLAMKAQKHEEQLTKRHLDQLEQLDKDFHKALDAEVGNYKEEQLAAQPTSVV

binding [2]: no binding
binding [3]: no binding
B2: EGL-8 tested against RAB-10 in the GST pull-down of Fig. S5B (enzyme, UniProt G5EBH0 1-1431)
chain: B1 chain
